Numbering of substitutions follows the chain as printed. No constants are given. Whether binding was seen depends on the method and setting. Binding seen in cells or lysates may run through a third protein. Some entries that bind do so weakly or less than the wild type. Sequences can lack the tags named with a protein.
Experiments:
Assay in all cases: co-IP; HEK293T cells transiently co-transfected with FLAG-tagged podoplanin constructs and Ha-tagged CD44 isoforms; lysed after 24 h in IP buffer (50 mM Tris-HCl pH 7.5, 100 mM NaCl, 5 mM EDTA, 0.5% NP-40, 10% glycerol); about 750 μg lysate, anti-FLAG mAb and protein G Dynabeads overnight at 4 °C; blot with anti-Ha
[1] = molecular target: T1, podoplanin wild-type, FLAG-tagged (human) (human) (UniProt Q86YL7)
T1 sequence: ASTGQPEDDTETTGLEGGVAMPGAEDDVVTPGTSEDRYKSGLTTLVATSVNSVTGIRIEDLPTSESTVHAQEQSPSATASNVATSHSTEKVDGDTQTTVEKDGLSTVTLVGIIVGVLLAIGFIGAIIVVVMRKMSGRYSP

Amino acid sequences for entries named in this document (tags omitted). A change or cut given only in a name is not applied to a line headed by its entry. Chains listed by the source or under a name are the forms on record and can include a tag or linker.
CD44v8-10 isoform, Ha-tagged (human) (P16070-10, form named): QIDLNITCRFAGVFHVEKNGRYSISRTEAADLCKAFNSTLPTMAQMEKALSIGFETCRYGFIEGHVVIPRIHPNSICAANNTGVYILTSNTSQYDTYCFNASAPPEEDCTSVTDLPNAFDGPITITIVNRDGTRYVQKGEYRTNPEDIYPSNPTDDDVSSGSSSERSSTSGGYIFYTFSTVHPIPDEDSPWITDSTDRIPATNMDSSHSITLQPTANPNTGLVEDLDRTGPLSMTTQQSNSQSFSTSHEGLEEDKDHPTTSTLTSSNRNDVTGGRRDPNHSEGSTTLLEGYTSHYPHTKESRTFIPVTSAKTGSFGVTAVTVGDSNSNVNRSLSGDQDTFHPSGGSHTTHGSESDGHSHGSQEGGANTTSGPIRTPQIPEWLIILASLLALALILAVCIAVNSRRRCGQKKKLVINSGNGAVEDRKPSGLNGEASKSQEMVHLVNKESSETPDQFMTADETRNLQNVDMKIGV
CD44 standard isoform, Ha-tagged (human) (P16070-12, form named): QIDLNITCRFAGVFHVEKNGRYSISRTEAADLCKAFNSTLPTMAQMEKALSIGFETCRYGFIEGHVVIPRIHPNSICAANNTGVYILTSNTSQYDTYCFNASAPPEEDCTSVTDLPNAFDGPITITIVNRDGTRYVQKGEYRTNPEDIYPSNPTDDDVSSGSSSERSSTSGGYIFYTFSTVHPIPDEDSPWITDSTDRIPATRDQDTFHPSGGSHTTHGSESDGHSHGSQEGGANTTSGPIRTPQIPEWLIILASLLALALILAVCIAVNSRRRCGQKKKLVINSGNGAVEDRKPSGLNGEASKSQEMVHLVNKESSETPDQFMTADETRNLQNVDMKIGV
CD44sC9 isoform (CD44s with truncated cytosolic domain), Ha-tagged (human) (P16070-15, form named): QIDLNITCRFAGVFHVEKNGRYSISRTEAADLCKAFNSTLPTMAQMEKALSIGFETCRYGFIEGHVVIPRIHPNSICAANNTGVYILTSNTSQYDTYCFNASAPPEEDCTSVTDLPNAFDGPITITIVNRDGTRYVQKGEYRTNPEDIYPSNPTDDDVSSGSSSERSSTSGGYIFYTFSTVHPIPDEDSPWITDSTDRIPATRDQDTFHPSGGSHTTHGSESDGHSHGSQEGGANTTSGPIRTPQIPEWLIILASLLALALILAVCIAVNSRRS
CD44v3-10 isoform, Ha-tagged (human) (P16070-4, form named): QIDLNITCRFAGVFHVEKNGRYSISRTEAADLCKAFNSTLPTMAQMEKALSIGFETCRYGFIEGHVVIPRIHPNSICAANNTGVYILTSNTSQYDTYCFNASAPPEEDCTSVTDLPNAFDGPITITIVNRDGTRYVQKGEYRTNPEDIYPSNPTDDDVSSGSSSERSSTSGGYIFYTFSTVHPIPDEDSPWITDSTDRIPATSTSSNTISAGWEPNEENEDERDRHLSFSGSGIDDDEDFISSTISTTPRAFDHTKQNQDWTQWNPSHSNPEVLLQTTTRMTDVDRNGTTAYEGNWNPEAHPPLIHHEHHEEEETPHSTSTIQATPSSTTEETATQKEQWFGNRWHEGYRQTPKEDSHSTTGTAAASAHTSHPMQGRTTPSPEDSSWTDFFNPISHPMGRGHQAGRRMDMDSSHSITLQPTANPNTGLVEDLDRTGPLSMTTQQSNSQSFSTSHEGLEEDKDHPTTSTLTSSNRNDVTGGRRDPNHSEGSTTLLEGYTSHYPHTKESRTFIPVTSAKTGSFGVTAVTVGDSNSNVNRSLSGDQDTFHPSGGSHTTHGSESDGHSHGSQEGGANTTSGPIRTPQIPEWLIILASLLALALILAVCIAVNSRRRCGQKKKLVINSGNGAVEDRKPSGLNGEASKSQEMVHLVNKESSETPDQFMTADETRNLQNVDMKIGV

[2] = molecular target: T2, PDPN-S/Tm, FLAG-tagged (human) (UniProt Q86YL7)
T2 sequence: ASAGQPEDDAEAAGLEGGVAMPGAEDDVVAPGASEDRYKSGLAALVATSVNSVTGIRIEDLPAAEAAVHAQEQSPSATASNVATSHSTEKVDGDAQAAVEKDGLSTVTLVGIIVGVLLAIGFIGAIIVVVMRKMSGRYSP

[3] = molecular target: T3, PDPN-G137L, FLAG-tagged (human) (UniProt Q86YL7)
T3 sequence: T1 sequence with G115L

[4] = molecular target: T4, PDPN-PLAG4Tm, FLAG-tagged (human) (UniProt Q86YL7)
T4 sequence: T1 sequence with T63A

[5] = molecular target: T5, PDPN-PLAG3Tm, FLAG-tagged (human) (UniProt Q86YL7)
T5 sequence: T1 sequence with T30A

[6] = molecular target: T6, PDPN-PLAG3/4Tm, FLAG-tagged (human) (UniProt Q86YL7)
T6 sequence: T1 sequence with T30A, T63A

[7] = molecular target: T7, PDPN-PLAG3m, FLAG-tagged (human) (UniProt Q86YL7)
T7 sequence: T1 sequence with E25A, D26A, T30A

binding [1] | binding [2] | binding [3] | binding [4] | binding [5] | binding [6] | binding [7] | Substance
binds | – | – | – | – | – | – | CD44v8-10 isoform, Ha-tagged (human) (from UniProt P16070-10 21-493)
binds | binds | binds | binds | binds | binds | binds | CD44 standard isoform, Ha-tagged (human) (from UniProt P16070-12 21-361)
binds weakly | – | – | – | – | – | – | CD44sC9 isoform (CD44s with truncated cytosolic domain), Ha-tagged (human) (from UniProt P16070-15 21-294)
binds | – | – | – | – | – | – | CD44v3-10 isoform, Ha-tagged (human) (from UniProt P16070-4 21-699)
